{"source": "patent US20240076371A1", "about": "“COMPOSITIONS AND METHODS FOR TREATING OSTEOARTHRITIS, RHEUMATOID ARTHRITIS, AND JOINT AND TENDON DISORDERS” (BOARD OF REGENTS, THE UNIVERSITY OF TEXAS SYSTEM, priority 2021, published 2024)", "molecules": {"B1": {"name": "M1 antibody: antibody with variable heavy chain SEQ ID NO: 58 and variable light chain SEQ ID NO: 60; inhibits or blocks opening of Cx43 hemichannel (antibody, V domains shown)", "VH": "EVQLQQPGAELVKPGASVKLSCKASGYTFTSYYMYWVKQRPGQGLEWIGGINPSNGGTNFNEKFKNKATLTVDKSSSTAYMQLSSLTSEDSAVYYCTREGNPYYTMNYWGQGTSVTVSS", "VL": "DIVMTQSPSSLSVSAGEKVTMSCKSSQSLLNSGNQKTYLAWYQQKPGQPPKLLIYGASTRESGVPDRFTGSGSGTDFTLTISSVQAEDLAVYYCQNDHSYPFTFGSGTKLEIK"}}, "system": "knee joint region (synovium)", "experiment": "In vivo antibody binding pattern in the knee joint (immunofluorescence)", "set-up": "species or system mouse", "settings": "25 mg/kg i.p.", "excerpt": "Immunofluorescent staining. The isolated femur and tibia bones were fixed in 4% paraformaldehyde for 2 days prior to decalcification with 10% EDTA (pH 7.5) for 3 weeks, and then dehydrated in 30% sucrose/PBS for 3 days. Samples were embedded in the Tissue-Tek CRYO OCT compound (Thermo Fisher Scientific, Pittsburgh, PA, USA), and 12-μm-thick sections were collected on glass slides. Sections were blocked and permeabilized with 2% goat serum, 2% fish skin gelatin, 0.025% Triton X-100 and 1% bovine serum albumin in PBS. The sections were incubated overnight at 4° C. with affinity-purified antibodies against Cx43 (CT) (1:100) (Cherian P P, et al. The Journal of biological chemistry. 2003; 278(44):43146-56), for 1 hour with the appropriate secondary antibody. Slides were mounted using Vectashield mounting medium (H-1000, Vector Lab). Confocal fluorescence imaging was performed using a confocal laser scanning microscope (LSM770, Carl Zeiss, Oberkochen, Germany).\nM1 antibody binds to synovium and inhibits hemichannel opening in OA. Due to the dense nature of cartilage and large size of antibodies, a widely held perception is that antibodies are unable to penetrate the cartilage matrix. To determine the antibody binding pattern in the knee joint region, M1 antibody (25 mg/kg) with human IgG epitope or saline was intraperitoneally (i.p.) injected at 30 mins after DMM surgery. […]"}
{"molecule": "B1", "values": [{"measurement": "co-localization with macrophage marker CD68", "result": "co-localized with CD68"}, {"measurement": "co-localization with synovial fibroblast marker Periostin", "result": "co-localization"}]}
